Assay: Identification and label-free relative LC-MS quantitation of HLA-presented peptides on tumor and normal tissue samples (XPRESIDENT presentation profiles)
Set-up: species or system human
Conditions: entities where the peptide was over-presented on cancer samples compared to normal tissues

Substance | Entities of particular interest
134 (SLYKSFLQL; listed as Homo sapiens) [compound 134] | NSCLC, OSCAR, OC
137 (KLIYKDLVSV; listed as Homo sapiens) [compound 137] | NSCLC, OC, PC
146 (VVAAHLAGA; listed as Homo sapiens) [compound 146] | NSCLC, OSCAR, OC
165 (SLLDYEVSI; listed as Homo sapiens) [compound 165] | NSCLC, OSCAR, OC
166 (LLGDSSFFL; listed as Homo sapiens) [compound 166] | NSCLC, HCC, OSCAR, OC, PC
170 (FIAAVVEKV; listed as Homo sapiens) [compound 170] | NSCLC, OC
175 (SLLDLVQSL; listed as Homo sapiens) [compound 175] | PC, OC
176 (VQSGLRILL; listed as Homo sapiens) [compound 176] | NSCLC, OSCAR
184 (ALDSTIAHL; listed as Homo sapiens) [compound 184] | NSCLC, OC

Same assay, conditions: tumor entities on which the HLA-presented peptide was found; entity abbreviations defined in the title of Table 4B

Substance | Additional entities of particular interest (presentation of selected peptides across entities)
119 (SLIEESEEL; listed as Homo sapiens) [compound 119] | OC, UTC
124 (ALLLRLFTI; listed as Homo sapiens) [compound 124] | NSCLC
128 (SILTNISEV; listed as Homo sapiens) [compound 128] | NSCLC
129 (KMASKVTQV; listed as Homo sapiens) [compound 129] | HCC
130 (QLYGSAITL; listed as Homo sapiens) [compound 130] | HCC
132 (ALLNNVIEV; listed as Homo sapiens) [compound 132] | HCC, BRCA
133 (FLDGRPLTL; listed as Homo sapiens) [compound 133] | UTC, MEL
136 (LLWDAPAKC; listed as Homo sapiens) [compound 136] | CRC
139 (IILENIQSL; listed as Homo sapiens) [compound 139] | UBC, BRCA, AML
140 (FLDSQITTV; listed as Homo sapiens) [compound 140] | MEL
142 (LLDAAHASI; listed as Homo sapiens) [compound 142] | NSCLC
143 (MLWESIMRV; listed as Homo sapiens) [compound 143] | NSCLC, UTC
144 (FLISQTPLL; listed as Homo sapiens) [compound 144] | NSCLC, SCLC, UBC
145 (ALEEKLENV; listed as Homo sapiens) [compound 145] | NSCLC
146 (VVAAHLAGA; listed as Homo sapiens) [compound 146] | GC, MEL
150 (VLLDMVHSL; listed as Homo sapiens) [compound 150] | HCC, UTC
151 (DISKRIQSL; listed as Homo sapiens) [compound 151] | NSCLC
153 (KLVELEHTL; listed as Homo sapiens) [compound 153] | GC, NSCLC, OSCAR
154 (AIIKEIQTV; listed as Homo sapiens) [compound 154] | GB, NSCLC, HCC, UBC, MEL
159 (QLGPVPVTI; listed as Homo sapiens) [compound 159] | UBC, RCC, NHL

Substance | Additional entities of particular interest (presentation of selected peptides across entities)
160 (TLQEWLTEV; listed as Homo sapiens) [compound 160] | NSCLC, GBC_CCC
161 (NLLDENVCL; listed as Homo sapiens) [compound 161] | CRC
162 (GLLGNLLTSL; listed as Homo sapiens) [compound 162] | NSCLC
163 (GLEERLYTA; listed as Homo sapiens) [compound 163] | NSCLC, CLL, AML, NHL
164 (MLIIRVPSV; listed as Homo sapiens) [compound 164] | NSCLC
165 (SLLDYEVSI; listed as Homo sapiens) [compound 165] | GBC_CCC
166 (LLGDSSFFL; listed as Homo sapiens) [compound 166] | CLL, UBC, UTC, BRCA, GBC_CCC, MEL, AML
167 (LVVDEGSLVSV; listed as Homo sapiens) [compound 167] | OC, SCLC
168 (VIFEGEPMYL; listed as Homo sapiens) [compound 168] | NSCLC, BRCA, NHL
170 (FIAAVVEKV; listed as Homo sapiens) [compound 170] | SCLC, NHL
171 (LLLLDVPTA; listed as Homo sapiens) [compound 171] | NSCLC, UTC, BRCA, CRC, NHL
172 (SLYLQMNSLRTE; listed as Homo sapiens) [compound 172] | NSCLC
174 (ALYSGDLHAA; listed as Homo sapiens) [compound 174] | HCC
175 (SLLDLVQSL; listed as Homo sapiens) [compound 175] | BRCA, AML, NHL
177 (ALINVLNAL; listed as Homo sapiens) [compound 177] | AML
179 (TLGEIIKGV; listed as Homo sapiens) [compound 179] | NSCLC
180 (RLYEEEIRI; listed as Homo sapiens) [compound 180] | NSCLC
181 (LLWAPTAQA; listed as Homo sapiens) [compound 181] | GB, NSCLC, RCC, CRC
183 (ALSYILPYL; listed as Homo sapiens) [compound 183] | NSCLC, SCLC, UTC, BRCA, CRC, AML, NHL
184 (ALDSTIAHL; listed as Homo sapiens) [compound 184] | UTC, MEL
